Screen size: about 410,000 compounds; about 2,000 (0.49%) were called active. The inconclusive results got no clear call from the source; some entries with a clear call stand among them for comparison. Calls follow the shape of the full dose curve; tested in HEK293 reporter line. Where the call is inconclusive, the potency comes from a doubtful curve fit.
Assay: qHTS Assay for Foot and Mouth Disease Virus Antivirals: Primary Screen against the MLPCN compound library; also: nearly all actives have a fitted effect of over 55% in size
Conditions: FMDV antiviral cell-based qHTS; activity, negative = inhibition: at 57.9 µM (top of the series)
Potency is read from the fitted curve at half-maximal effect.

SMILES | Potency | activity, negative = inhibition
CCOC(=O)c1c(NC(=O)/C=C/C(=O)O)sc(C)c1-c1ccc(C)c(C)c1 | inconclusive: 31.6 µM [inhibitor, partial curve, poor fit] | 
CCCN1C(=O)c2cc(C(=O)Nc3ccccc3OC)ccc2C1Nc1ccccc1OC (stereo unspecified) |  | inactive: -38.9%
O=C1c2cccc3c([N+](=O)[O-])ccc(c23)C(=O)N1c1ccc(Cl)cn1 | inconclusive: 25.1 µM [inhibitor, partial curve, poor fit] | 
OCCCNc1ncnc2c1cnn2-c1ccc(Cl)cc1 | inconclusive: 39.8 µM [inhibitor, single point] | 
CCN(CC)S(=O)(=O)c1ccc(C(C)NC(=O)Cc2c[nH]c3ccccc23)cc1 (stereo unspecified) | inconclusive: 20 µM [inhibitor, single point] | 
COc1ccc(S(=O)(=O)N2CCOC2CNC(=O)C(=O)NCCCc2ccccc2)cc1 (stereo unspecified) | inconclusive: 14.1 µM [inhibitor, partial curve, poor fit] | 
CCOc1ccc(CN(C)c2nc(-c3cccnc3)nc3ccccc23)cc1OC | inconclusive: 25.1 µM [inhibitor, partial curve, poor fit] | 
Cc1nc(-c2c(-c3ccc(O)cc3O)noc2C(F)(F)F)cs1 | inconclusive: 35.5 µM [inhibitor, partial curve, poor fit] | 
CN(C)CC1CCC/C(=C\c2ccc(OC(=O)/C=C/c3ccccc3)cc2)C1=O (stereo unspecified) | inconclusive: 39.8 µM [inhibitor, partial curve, poor fit] | 
O=C(/C=C/c1cc([N+](=O)[O-])ccc1OC(F)F)Nc1cccc([N+](=O)[O-])c1 |  | inactive: -28.7%
Cc1ccc2c(c1)-c1c(ssc1=S)C(C)(C)N2C(=O)CN1C(=O)c2ccccc2C1=O | inconclusive: 3.55 µM [inhibitor, full curve] | 
COc1cc(/C=C/C(=O)c2ccc(F)cc2)cc(OC)c1OC | inconclusive: 25.1 µM [inhibitor, partial curve, poor fit] | 
COc1cc([N+](=O)[O-])ccc1NC(=O)N1CCN(c2cc(-c3noc(C)n3)ccc2C)CC1 | inconclusive: 1.41 µM [inhibitor, partial curve, poor fit] | 
COc1ccc(/C=C/C(=O)N2CCN(c3ccccc3)CC2)cc1S(=O)(=O)N1CCOCC1 | inconclusive: 14.1 µM [inhibitor, partial curve, poor fit] | 
Cc1cc(Sc2nnc(/N=C/N(C)C)s2)c2ccccc2n1 | inconclusive: 14.1 µM [inhibitor, partial curve, poor fit] | 
COc1cccc(C(=O)O/N=C(\N)c2ccccn2)c1 | inconclusive: 10 µM [inhibitor, partial curve, poor fit] | 
COc1ccc(-c2noc(CCCC(=O)NC3CCCC3)n2)cc1 |  | inactive: -30.2%
CCN(CC)CCN(Cc1cc2cc(C)ccc2[nH]c1=O)C(=S)Nc1ccccc1 | inconclusive: 5.01 µM [inhibitor, full curve] | 
COC(=O)c1ccc2c(=O)n(CCCCCC(=O)N3CCN(c4cc(Cl)ccc4C)CC3)c(=O)[nH]c2c1 | inconclusive: 14.1 µM [inhibitor, partial curve, poor fit] | 
CCN(Cc1cc(=O)oc2cc(C)ccc12)c1ccccc1 |  | inactive: -38.6%
CCOc1ccc(C(=O)CCC(=O)N2CCN(c3ccccc3O)CC2)cc1 | inconclusive: 35.5 µM [inhibitor, single point] | 

No new results follow: entries from further up.
SMILES | Potency | activity, negative = inhibition
COc1cc([N+](=O)[O-])ccc1NC(=O)N1CCN(c2cc(-c3noc(C)n3)ccc2C)CC1 | inconclusive: 1.41 µM [inhibitor, partial curve, poor fit] | 
COc1ccc(/C=C/C(=O)N2CCN(c3ccccc3)CC2)cc1S(=O)(=O)N1CCOCC1 | inconclusive: 14.1 µM [inhibitor, partial curve, poor fit] | 
Cc1cc(Sc2nnc(/N=C/N(C)C)s2)c2ccccc2n1 | inconclusive: 14.1 µM [inhibitor, partial curve, poor fit] | 
COc1cccc(C(=O)O/N=C(\N)c2ccccn2)c1 | inconclusive: 10 µM [inhibitor, partial curve, poor fit] | 

Continuation:

SMILES | Potency | activity, negative = inhibition
O=C(C1COc2ccccc2O1)N1CCN(S(=O)(=O)c2ccccc2)CC1 (stereo unspecified) |  | inactive: -32.6%
Cc1ccc(S(=O)(=O)N2CCN(C(=O)CCCN3C(=O)NC4(CCCC4)C3=O)CC2)cc1C |  | inactive: -33.6%
COc1cccc(-c2nnc(-c3ccco3)o2)c1 | inconclusive: 28.2 µM [inhibitor, single point] | 
COc1ccc(C(=O)NCCSc2ccccc2)cc1 | inconclusive: 15.8 µM [inhibitor, single point] | 
COc1cc(SC)ccc1C(=O)Nc1nc2ccccc2[nH]1 |  | inactive: -100%
COc1ccc(C2=NN(C(=O)COC(=O)c3ccc(S(C)(=O)=O)c([N+](=O)[O-])c3)C(c3ccco3)C2)cc1 (stereo unspecified) | inconclusive: 25.1 µM [inhibitor, partial curve, poor fit] | 
CC(C)Cn1c(C(C)C)nc([N+](=O)[O-])c1S(=O)(=O)c1ccc(F)cc1 | inconclusive: 15.8 µM [inhibitor, partial curve, poor fit] | 
CC(=O)c1cccc(NC(=O)CN(C)S(=O)(=O)c2ccc3c(c2)CC(C)N3C(C)=O)c1 (stereo unspecified) | inconclusive: 20 µM [inhibitor, partial curve, poor fit] | 
O=C(/C=C\Nc1ccc(Br)cc1)c1cccnc1 | inconclusive: 15.8 µM [inhibitor, single point] | 
O=C(Nc1ccc2c(c1)OCCO2)c1ccc(Cl)cc1Cl | inconclusive: 20 µM [inhibitor, single point] | 
C=CCNc1nc2c(c(=O)n(C)c(=O)n2C)n1CCCCCC | inconclusive: 14.1 µM [inhibitor, partial curve, poor fit] | 
Clc1ccccc1-c1nnc(SCc2nc(-c3ccccc3)no2)n1-c1ccccc1 | inconclusive: 25.1 µM [inhibitor, partial curve, poor fit] | 
C=CC[C@@H](Cc1ccc(F)cc1)C(=O)OC[C@H]1CCCN1C(=O)[C@@H](CC=C)CC(=O)N(CCO)Cc1ccccc1 |  | inactive: -34.2%
Cc1ccc2nc(-c3ccc(Br)cc3)cn2c1 | inconclusive: 11.2 µM [inhibitor, partial curve, poor fit] | 
O=C(CN1CCN(S(=O)(=O)c2ccc(Cl)c(Cl)c2)CC1)N1CCCC1 |  | inconclusive: -33.4% [inhibitor]
COc1ccc(Nc2c3c(nc4ccc(NC(=O)c5cc(Cl)ccc5OC)cc24)CCCC3)cc1OC | inconclusive: 31.6 µM [inhibitor, single point] | 
C[CH2][Hg][S]c1ccccc1C(=O)O | inconclusive: 20 µM [inhibitor, partial curve, poor fit] | 
Cc1onc(-c2ccccc2Cl)c1C(=O)Oc1cc(N)n(S(=O)(=O)c2ccc(F)cc2)n1 | inconclusive: 31.6 µM [inhibitor, partial curve, poor fit] | 
Cc1ccc(S(=O)(=O)N2CCN(Cc3nnc(-c4c(-c5ccccc5)noc4C)o3)CC2)cc1 | inconclusive: 39.8 µM [inhibitor, partial curve, poor fit] | 
O=C(CN1CCN(c2ccc(F)cc2)CC1)Nc1ccccc1Br | inconclusive: 12.6 µM [inhibitor, partial curve, poor fit] | 
COc1ccc(-c2nc3ccccc3s2)cc1 | inconclusive: 10 µM [inhibitor, partial curve, poor fit] | 

SMILES | Potency | activity, negative = inhibition
O=C(NC1CCCC1)c1ccc(CSc2nc3cccnc3n2Cc2ccccc2)cc1 | inconclusive: 17.8 µM [inhibitor, single point] | 
CSC1=C(C#N)C(=O)NC(c2ccc(Cl)cc2)S1 (stereo unspecified) | inconclusive: 20 µM [inhibitor, partial curve, poor fit] | 
COc1ccc(C(=O)NNC(=O)c2ccccn2)cc1 |  | inactive: -98.5%
CCc1noc(C)c1C(=O)Oc1ccc(N(C)S(=O)(=O)c2ccccc2)cc1 | inconclusive: 17.8 µM [inhibitor, partial curve, poor fit] | 
COc1ccccc1N=Nc1ccc(O)c2ncccc12 | inconclusive: 3.98 µM [inhibitor, full curve] | 
O=C(CC(O)(C(F)(F)F)C(F)(F)F)Nc1ccc(Cl)c(Cl)c1 | inconclusive: 8.91 µM [inhibitor, full curve, poor fit] | 
O=C(c1ccoc1)N1CCN(c2cc(-c3ccccc3)nc3cc(-c4ccc(Br)cc4)nn23)CC1 | inconclusive: 22.4 µM [inhibitor, partial curve, poor fit] | 
Cc1nn(Cc2ccc(Cl)cc2)c(C)c1NC(=O)CSc1nc2c(c(C(F)(F)F)n1)CCc1ccccc1-2 | inconclusive: 35.5 µM [inhibitor, single point] | 
CCCCn1c(SCC2CCCO2)nc2cc(S(N)(=O)=O)ccc21 (stereo unspecified) | inconclusive: 8.91 µM [inhibitor, partial curve, poor fit] | 
COc1ccc(C)cc1S(=O)(=O)Nc1ccccc1 |  | inactive: 103%
COc1ccc2nc(NC(=O)c3ccco3)sc2c1 | active: 15.8 µM | 
Cc1ccc(O)c(CC(C)C)n1 | inconclusive: 3.16 µM [inhibitor, full curve] | 
Cc1ccc(-c2csc3ncnc(N4CCN(C(=O)c5ccccc5)CC4)c23)cc1 | inconclusive: 25.1 µM [inhibitor, partial curve, poor fit] | 
COc1ccc(CCNC(=S)N2CCC(C(=O)c3ccc(F)cc3)CC2)cc1OC |  | inactive: -11.8%
NS(=O)(=O)c1ccc(CCNC(=O)c2ccc(Cl)c(S(=O)(=O)N3CCCCC3)c2)cc1 | inconclusive: 44.7 µM [inhibitor, partial curve, poor fit] | 
CSc1nnc(Cn2c(=O)sc3ccccc32)n1-c1cccc(Cl)c1 | inconclusive: 17.8 µM [inhibitor, single point] | 
O=C(Nc1cccc(S(=O)(=O)N2CCCCC2)c1)c1ccc(S(=O)(=O)C(F)F)cc1 | inconclusive: 28.2 µM [inhibitor, partial curve, poor fit] | 
Cn1c(=O)c2[nH]c(CCCCCCCc3nc4ccccc4[nH]3)nc2n(C)c1=O | inconclusive: 15.8 µM [inhibitor, partial curve, poor fit] | 
Cc1cc(C)c(C(=O)c2ccc(C(=O)NC(C)(C)C)cc2)c(C)c1 | inconclusive: 15.8 µM [inhibitor, partial curve, poor fit] | 

— PubChem BioAssay AID1347131 (National Center for Advancing Translational Sciences (NCATS), 2019)
